Data reported in the supplement of paper PMC7666118.
The list shows a part of the results.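 How the source made its calls: active = dose-dependent thermal stabilisation significant by F-test of dose-response against flat model at 10% FDR; inactive = not significant.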

Protein sequences, listed by entry. Tags and fused reporters are not part of them. Lines headed by an entry give the natural chain unless they say otherwise; changes in a name come on top.
UniProt Q00536: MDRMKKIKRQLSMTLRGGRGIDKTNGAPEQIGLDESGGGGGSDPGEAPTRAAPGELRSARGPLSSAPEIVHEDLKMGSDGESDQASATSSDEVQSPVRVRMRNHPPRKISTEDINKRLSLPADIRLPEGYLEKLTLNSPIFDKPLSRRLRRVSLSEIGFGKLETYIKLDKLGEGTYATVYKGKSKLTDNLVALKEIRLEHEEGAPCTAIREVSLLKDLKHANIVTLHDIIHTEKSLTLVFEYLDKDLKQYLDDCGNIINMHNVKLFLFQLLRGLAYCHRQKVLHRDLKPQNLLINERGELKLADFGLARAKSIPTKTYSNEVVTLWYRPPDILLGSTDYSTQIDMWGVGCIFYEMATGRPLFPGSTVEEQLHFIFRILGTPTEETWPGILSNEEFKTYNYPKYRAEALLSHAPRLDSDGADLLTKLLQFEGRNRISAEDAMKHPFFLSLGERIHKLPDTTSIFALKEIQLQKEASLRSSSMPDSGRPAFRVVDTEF
UniProt A5YKK6, whole entry: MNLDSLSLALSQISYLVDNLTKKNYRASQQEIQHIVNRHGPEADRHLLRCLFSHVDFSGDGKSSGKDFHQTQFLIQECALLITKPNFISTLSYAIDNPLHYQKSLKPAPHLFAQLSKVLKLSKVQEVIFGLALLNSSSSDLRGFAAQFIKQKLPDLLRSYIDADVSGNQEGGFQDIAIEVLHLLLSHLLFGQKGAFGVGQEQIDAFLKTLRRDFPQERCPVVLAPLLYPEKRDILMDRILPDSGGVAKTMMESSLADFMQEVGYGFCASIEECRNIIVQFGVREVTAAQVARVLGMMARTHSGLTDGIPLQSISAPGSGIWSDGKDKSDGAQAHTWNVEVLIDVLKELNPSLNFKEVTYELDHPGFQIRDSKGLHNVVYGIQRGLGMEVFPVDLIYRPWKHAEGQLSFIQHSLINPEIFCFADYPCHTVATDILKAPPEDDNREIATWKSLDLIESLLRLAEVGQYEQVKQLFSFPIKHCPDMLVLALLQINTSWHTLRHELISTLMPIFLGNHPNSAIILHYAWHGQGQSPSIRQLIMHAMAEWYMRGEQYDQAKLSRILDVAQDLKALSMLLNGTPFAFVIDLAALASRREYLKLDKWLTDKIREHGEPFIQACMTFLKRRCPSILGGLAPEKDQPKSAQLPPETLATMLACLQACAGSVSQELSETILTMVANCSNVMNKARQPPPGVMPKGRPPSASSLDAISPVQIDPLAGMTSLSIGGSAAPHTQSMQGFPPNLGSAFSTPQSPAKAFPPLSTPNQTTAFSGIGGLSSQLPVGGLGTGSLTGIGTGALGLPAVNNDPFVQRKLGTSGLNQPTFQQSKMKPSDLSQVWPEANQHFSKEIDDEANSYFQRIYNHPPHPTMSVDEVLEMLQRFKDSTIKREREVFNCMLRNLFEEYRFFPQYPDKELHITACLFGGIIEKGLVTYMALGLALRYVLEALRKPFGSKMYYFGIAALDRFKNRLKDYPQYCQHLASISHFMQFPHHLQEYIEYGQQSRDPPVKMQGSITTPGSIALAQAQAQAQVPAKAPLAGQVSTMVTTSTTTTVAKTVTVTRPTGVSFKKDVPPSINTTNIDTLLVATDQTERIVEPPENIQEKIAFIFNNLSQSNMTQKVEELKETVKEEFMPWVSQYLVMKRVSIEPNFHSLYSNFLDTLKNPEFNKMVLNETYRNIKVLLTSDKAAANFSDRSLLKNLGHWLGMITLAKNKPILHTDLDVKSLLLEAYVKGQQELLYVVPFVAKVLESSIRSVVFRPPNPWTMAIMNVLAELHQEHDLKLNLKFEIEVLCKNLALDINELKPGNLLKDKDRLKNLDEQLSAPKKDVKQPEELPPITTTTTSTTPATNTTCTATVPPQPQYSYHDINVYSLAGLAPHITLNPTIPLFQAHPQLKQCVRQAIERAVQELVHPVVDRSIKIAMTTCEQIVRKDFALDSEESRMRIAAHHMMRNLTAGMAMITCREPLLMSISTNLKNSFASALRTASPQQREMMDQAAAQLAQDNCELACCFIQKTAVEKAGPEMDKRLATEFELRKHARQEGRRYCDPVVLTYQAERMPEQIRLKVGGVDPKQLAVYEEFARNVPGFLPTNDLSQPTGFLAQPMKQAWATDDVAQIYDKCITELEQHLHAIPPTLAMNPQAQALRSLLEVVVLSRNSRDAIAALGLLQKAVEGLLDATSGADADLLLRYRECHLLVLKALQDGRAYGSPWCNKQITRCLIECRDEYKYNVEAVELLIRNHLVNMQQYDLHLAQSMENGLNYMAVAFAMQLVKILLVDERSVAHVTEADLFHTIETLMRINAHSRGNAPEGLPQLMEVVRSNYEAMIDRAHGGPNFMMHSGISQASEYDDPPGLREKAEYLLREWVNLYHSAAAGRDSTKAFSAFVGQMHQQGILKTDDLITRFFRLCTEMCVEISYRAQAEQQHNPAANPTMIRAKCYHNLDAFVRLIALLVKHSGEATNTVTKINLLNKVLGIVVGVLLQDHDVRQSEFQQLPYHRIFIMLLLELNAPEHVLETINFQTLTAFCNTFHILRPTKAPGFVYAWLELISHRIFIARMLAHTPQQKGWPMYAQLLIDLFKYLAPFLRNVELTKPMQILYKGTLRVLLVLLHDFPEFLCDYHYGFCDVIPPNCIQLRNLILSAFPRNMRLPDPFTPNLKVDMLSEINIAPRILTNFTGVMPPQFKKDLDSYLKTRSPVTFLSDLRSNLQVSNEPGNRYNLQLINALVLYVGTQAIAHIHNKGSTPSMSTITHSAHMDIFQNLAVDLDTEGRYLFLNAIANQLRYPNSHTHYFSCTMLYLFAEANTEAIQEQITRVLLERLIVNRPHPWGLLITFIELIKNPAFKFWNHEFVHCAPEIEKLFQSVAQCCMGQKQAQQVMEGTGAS
UniProt O95639, whole entry: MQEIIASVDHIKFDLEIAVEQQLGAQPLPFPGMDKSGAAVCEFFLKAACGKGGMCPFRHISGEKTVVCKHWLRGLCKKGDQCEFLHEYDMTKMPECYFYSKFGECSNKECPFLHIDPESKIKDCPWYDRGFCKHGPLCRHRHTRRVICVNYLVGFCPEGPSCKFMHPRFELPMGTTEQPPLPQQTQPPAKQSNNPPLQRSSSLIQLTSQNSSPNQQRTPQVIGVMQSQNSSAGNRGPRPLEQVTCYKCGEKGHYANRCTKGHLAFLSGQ
UniProt Q9P000, whole entry: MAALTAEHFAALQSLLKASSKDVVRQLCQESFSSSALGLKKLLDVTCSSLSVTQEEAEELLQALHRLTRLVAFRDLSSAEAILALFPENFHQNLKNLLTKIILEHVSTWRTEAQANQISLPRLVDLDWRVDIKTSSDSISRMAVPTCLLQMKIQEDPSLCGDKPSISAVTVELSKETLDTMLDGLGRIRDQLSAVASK
UniProt Q2KHT3: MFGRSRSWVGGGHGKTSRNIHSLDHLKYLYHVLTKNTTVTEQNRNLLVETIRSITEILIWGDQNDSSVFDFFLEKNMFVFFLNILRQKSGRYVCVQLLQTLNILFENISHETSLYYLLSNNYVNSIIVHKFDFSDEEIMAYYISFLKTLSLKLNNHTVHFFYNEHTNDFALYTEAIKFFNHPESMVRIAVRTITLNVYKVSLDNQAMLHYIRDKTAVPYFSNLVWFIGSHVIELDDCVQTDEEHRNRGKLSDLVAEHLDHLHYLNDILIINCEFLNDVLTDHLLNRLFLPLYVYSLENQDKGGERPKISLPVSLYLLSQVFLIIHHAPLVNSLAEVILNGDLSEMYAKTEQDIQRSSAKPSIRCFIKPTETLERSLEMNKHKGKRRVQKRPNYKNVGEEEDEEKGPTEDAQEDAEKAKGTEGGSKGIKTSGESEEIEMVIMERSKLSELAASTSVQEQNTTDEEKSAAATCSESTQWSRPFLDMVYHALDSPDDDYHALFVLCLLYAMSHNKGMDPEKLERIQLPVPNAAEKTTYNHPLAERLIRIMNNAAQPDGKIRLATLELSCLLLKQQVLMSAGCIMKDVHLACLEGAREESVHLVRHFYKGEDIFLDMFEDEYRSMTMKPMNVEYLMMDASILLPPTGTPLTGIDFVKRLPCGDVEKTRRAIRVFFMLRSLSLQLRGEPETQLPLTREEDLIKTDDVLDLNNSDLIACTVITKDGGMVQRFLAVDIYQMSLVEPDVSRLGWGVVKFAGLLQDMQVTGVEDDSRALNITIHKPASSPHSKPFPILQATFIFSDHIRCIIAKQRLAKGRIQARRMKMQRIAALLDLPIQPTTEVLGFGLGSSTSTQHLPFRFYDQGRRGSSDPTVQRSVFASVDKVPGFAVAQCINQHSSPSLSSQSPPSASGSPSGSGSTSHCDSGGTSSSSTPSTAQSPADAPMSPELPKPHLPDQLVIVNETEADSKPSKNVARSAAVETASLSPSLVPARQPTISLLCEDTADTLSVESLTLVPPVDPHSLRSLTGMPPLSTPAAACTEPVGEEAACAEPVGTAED
UniProt Q9UJX2, whole entry: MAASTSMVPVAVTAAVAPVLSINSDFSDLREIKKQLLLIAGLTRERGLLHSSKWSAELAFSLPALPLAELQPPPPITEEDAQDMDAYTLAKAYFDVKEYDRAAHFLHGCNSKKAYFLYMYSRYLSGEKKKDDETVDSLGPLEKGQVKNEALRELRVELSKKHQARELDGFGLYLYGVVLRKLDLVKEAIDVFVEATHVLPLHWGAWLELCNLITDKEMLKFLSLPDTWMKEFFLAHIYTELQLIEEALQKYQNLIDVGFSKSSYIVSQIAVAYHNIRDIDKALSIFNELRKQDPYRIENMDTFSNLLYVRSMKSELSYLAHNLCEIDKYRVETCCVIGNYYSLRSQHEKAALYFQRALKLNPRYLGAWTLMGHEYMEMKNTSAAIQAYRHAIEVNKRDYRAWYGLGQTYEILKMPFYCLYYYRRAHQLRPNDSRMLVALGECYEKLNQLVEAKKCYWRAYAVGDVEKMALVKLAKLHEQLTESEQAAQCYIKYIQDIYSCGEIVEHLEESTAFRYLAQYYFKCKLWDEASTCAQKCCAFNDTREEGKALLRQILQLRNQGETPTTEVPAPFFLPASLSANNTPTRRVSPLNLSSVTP
UniProt Q9H078: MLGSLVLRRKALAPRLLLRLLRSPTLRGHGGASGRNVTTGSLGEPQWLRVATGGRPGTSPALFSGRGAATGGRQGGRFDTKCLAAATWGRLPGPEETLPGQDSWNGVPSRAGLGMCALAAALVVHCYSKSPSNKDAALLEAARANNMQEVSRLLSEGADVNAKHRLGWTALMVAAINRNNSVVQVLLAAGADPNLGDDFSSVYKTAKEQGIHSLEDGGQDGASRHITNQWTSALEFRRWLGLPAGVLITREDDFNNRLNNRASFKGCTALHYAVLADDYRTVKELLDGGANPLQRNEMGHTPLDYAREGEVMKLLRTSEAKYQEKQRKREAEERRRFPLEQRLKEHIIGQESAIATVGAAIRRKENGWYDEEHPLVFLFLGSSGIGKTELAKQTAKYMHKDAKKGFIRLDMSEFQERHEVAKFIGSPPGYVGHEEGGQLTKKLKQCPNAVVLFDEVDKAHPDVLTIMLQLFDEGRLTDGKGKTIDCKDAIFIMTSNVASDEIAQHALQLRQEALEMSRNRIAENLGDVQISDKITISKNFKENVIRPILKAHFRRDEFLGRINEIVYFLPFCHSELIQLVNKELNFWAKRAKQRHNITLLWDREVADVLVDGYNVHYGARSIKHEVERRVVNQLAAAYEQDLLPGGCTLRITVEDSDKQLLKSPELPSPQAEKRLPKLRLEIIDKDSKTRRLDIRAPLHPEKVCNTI
UniProt Q9BSQ5: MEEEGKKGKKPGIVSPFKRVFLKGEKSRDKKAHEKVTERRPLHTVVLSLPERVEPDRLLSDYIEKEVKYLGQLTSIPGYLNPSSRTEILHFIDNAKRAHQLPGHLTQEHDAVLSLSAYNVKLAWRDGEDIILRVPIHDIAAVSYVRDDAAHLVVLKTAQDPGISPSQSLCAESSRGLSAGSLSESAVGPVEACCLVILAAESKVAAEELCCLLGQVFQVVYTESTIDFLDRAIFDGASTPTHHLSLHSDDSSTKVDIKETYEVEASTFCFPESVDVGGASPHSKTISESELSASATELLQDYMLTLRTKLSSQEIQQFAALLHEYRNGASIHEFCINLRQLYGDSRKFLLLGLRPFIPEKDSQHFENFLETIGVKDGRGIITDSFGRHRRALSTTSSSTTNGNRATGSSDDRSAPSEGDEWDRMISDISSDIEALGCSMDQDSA
UniProt Q8NFW8: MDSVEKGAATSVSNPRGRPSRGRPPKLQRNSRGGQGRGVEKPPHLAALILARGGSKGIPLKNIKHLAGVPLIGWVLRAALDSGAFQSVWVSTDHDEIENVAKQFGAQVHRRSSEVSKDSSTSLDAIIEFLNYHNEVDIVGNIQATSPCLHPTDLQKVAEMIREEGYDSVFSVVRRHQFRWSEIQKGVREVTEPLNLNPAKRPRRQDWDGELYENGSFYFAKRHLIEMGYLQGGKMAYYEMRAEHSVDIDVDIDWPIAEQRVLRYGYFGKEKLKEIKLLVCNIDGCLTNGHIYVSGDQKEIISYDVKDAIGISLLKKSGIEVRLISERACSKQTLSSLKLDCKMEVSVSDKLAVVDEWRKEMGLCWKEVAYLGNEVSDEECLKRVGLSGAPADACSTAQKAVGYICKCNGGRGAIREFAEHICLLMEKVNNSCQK

Compound: Nc1nc2c(ncn2[C@@H]2O[C@H](COP(=O)(O)OP(=O)(O)OP(=O)(O)O)[C@@H](O)[C@H]2O)c(=O)[nH]1
Assay: dose-dependent thermal stabilisation call (2D-TPP, DLPTP, 10% FDR) (binary (1 = stabilised)); higher = stabilised by the compound
Details: system: Jurkat gel-filtered lysate; concentration range 1-500 µM

With CNOT11 (UniProt Q9UKZ1) as the target, how does the “dose-dependent thermal stabilisation call” value read?
The value was inactive: 0.

CORO1B (UniProt Q9BR76) was tested. Which “dose-dependent thermal stabilisation call” value did it give?
Its value is inactive: 0.

Which “dose-dependent thermal stabilisation call” value does the source give for CHD8 (UniProt Q9HCK8) here?
The value was inactive: 0.

With CDK16 (UniProt Q00536) as the target, how does the “dose-dependent thermal stabilisation call” value read?
The value was inactive: 0.

CD48 (UniProt P09326) was tested. Which “dose-dependent thermal stabilisation call” value did it give?
Its value is inactive: 0.

For CDCA2 (UniProt Q69YH5), which “dose-dependent thermal stabilisation call” value is on record?
The value was inactive: 0.

With CPSF2 (UniProt Q9P2I0) as the target, how does the “dose-dependent thermal stabilisation call” value read?
Its value is active: 1.

For CBR4 (UniProt Q8N4T8), which “dose-dependent thermal stabilisation call” value is on record?
Its value is inactive: 0.

How did the “dose-dependent thermal stabilisation call” value turn out when CLTC (UniProt Q00610) was run?
The value was inactive: 0.

How did the “dose-dependent thermal stabilisation call” value turn out when CKS2 (UniProt P33552) was run?
The value was inactive: 0.

For CCDC22 (UniProt O60826), which “dose-dependent thermal stabilisation call” value is on record?
Its value is inactive: 0.

Which “dose-dependent thermal stabilisation call” value does the source give for COX6B1 (UniProt P14854) here?
The value was inactive: 0.

How did the “dose-dependent thermal stabilisation call” value turn out when COMMD10 (UniProt Q9Y6G5) was run?
The value was inactive: 0.

CDK5RAP2 (UniProt Q96SN8) was tested. Which “dose-dependent thermal stabilisation call” value did it give?
Its value is inactive: 0.

CNOT1 (UniProt A5YKK6) was tested. Which “dose-dependent thermal stabilisation call” value did it give?
Its value is inactive: 0.

With CPSF4 (UniProt O95639) as the target, how does the “dose-dependent thermal stabilisation call” value read?
The value was inactive: 0.

CCAR1 (UniProt Q8IX12) was tested. Which “dose-dependent thermal stabilisation call” value did it give?
The value was inactive: 0.

For COMMD9 (UniProt Q9P000), which “dose-dependent thermal stabilisation call” value is on record?
The value was inactive: 0.

How did the “dose-dependent thermal stabilisation call” value turn out when CLEC16A (UniProt Q2KHT3) was run?
The value was inactive: 0.

For COPG1 (UniProt Q9Y678), which “dose-dependent thermal stabilisation call” value is on record?
Its value is inactive: 0.

Which “dose-dependent thermal stabilisation call” value does the source give for CCDC82 (UniProt Q8N4S0) here?
The value was inactive: 0.

For CASP10 (UniProt Q92851), which “dose-dependent thermal stabilisation call” value is on record?
The value was inactive: 0.

For CCDC12 (UniProt Q8WUD4), which “dose-dependent thermal stabilisation call” value is on record?
Its value is inactive: 0.

How did the “dose-dependent thermal stabilisation call” value turn out when CEP350 (UniProt Q5VT06) was run?
The value was inactive: 0.

CLTA (UniProt P09496) was tested. Which “dose-dependent thermal stabilisation call” value did it give?
Its value is inactive: 0.

Which “dose-dependent thermal stabilisation call” value does the source give for CEP135 (UniProt Q66GS9) here?
The value was inactive: 0.

CDC23 (UniProt Q9UJX2) was tested. Which “dose-dependent thermal stabilisation call” value did it give?
Its value is inactive: 0.

CHAMP1 (UniProt Q96JM3) was tested. Which “dose-dependent thermal stabilisation call” value did it give?
Its value is inactive: 0.

CLPB (UniProt Q9H078) was tested. Which “dose-dependent thermal stabilisation call” value did it give?
The value was active: 1.

Which “dose-dependent thermal stabilisation call” value does the source give for CCP110 (UniProt O43303) here?
Its value is inactive: 0.

Which “dose-dependent thermal stabilisation call” value does the source give for CCM2 (UniProt Q9BSQ5) here?
The value was inactive: 0.

CENPC (UniProt Q03188) was tested. Which “dose-dependent thermal stabilisation call” value did it give?
The value was inactive: 0.

For CCDC134 (UniProt Q9H6E4), which “dose-dependent thermal stabilisation call” value is on record?
Its value is inactive: 0.

How did the “dose-dependent thermal stabilisation call” value turn out when CDC5L (UniProt Q99459) was run?
Its value is inactive: 0.

Which “dose-dependent thermal stabilisation call” value does the source give for COPG2 (UniProt Q9UBF2) here?
Its value is inactive: 0.

With CMAS (UniProt Q8NFW8) as the target, how does the “dose-dependent thermal stabilisation call” value read?
The value was active: 1.
